Read-outs that look alike come from different tables or passages of the source. Some results were stated once for a whole list of compounds, not compound by compound.
Molecular target: poly(ADP-ribose)polymerase (Homo sapiens, UniProt P09874)
Test: Formation of covalent compounds (with the enzyme)
Type: biochemical

Protein sequences, listed by entry. Tags and fused reporters are not part of them.
UniProt P09874, whole entry: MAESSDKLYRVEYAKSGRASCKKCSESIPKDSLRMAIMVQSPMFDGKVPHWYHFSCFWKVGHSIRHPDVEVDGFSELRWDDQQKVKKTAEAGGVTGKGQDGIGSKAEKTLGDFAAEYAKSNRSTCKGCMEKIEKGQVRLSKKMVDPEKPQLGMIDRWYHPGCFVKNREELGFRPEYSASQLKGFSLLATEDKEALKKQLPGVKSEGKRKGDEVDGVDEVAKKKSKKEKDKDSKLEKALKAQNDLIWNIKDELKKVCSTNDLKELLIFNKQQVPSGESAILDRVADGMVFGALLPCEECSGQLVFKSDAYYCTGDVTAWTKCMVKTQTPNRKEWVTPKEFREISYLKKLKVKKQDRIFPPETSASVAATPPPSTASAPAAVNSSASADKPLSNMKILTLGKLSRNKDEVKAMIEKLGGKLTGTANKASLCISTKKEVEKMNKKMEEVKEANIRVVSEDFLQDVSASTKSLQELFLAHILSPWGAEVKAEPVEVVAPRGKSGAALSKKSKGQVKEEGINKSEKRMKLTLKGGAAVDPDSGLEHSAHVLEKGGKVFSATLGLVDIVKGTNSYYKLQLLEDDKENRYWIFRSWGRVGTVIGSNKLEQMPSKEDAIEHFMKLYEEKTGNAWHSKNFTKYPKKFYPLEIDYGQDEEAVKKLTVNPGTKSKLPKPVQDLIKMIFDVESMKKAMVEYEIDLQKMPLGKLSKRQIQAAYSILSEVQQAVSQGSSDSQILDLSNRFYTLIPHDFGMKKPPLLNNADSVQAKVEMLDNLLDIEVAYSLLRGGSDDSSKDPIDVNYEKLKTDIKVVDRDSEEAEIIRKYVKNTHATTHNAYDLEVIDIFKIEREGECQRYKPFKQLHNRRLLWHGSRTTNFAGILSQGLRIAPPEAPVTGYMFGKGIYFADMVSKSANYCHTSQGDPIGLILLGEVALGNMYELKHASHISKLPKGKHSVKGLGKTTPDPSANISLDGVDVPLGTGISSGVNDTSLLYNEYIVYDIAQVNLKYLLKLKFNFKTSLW

`CN(N=O)C(=O)Nc1cccc(C(N)=O)c1` [Compound 19, 3(N-methyl,N-nitroso ureido)benzamide] was tested, and the “ability to form covalent compounds” value was “able to form covalent compounds”.
For `CCOC(=O)c1cccc(NC(=O)N(C)N=O)c1` [Compound 21, Ethyl,3-(N-methyl,N-nitrosoureido)benzoate], the “ability to form covalent compounds” value (listed as compound 21) was “able to form covalent compounds”.
`CN(N=O)C(=O)Nc1ccc(C(N)=O)cc1` [Compound 20, 4(N-methyl,N-nitroso ureido)benzamide] was tested, and the “ability to form covalent compounds” value (listed as compound 20) was “able to form covalent compounds”.

From US5719151A, “Substituted benzene compounds” (priority 1990, dated 1998)
